Reference: US7737252 (dated 2010)

Assays:
[1] = general procedure: Fmoc solid-phase peptide synthesis; Fmoc-Gly Wang resin; HBTU; conditions: whole synthesis, scale 0.1 mmol
[2] = general procedure: Fmoc solid-phase peptide synthesis; Fmoc-Gly-Wang resin; HBTU; conditions: whole synthesis, scale 0.25 mmol

Substance | crude mass [1] | crude mass [2]
H-ACDCRGDCFCG-OH (cysteine pairing not given here) | 100 mg | 
[Cys^7-9]cyclo[CH2CO-Lys-Asp-Cys]-Arg-Gly-Asp-Cys-Phe-Cys-Gly-Gly-OH |  | 260 mg
